Data from publication PMC7461561.
No constants are given. Whether binding was seen depends on the method and setting. In cells and extracts the contact can be indirect. A result given as binding can be weak or reduced; the word gives no strength.

Biological target: T1, Parkin (murine platelets) (mouse (endogenous in platelets)) (UniProt Q9WVS6)
T1 sequence: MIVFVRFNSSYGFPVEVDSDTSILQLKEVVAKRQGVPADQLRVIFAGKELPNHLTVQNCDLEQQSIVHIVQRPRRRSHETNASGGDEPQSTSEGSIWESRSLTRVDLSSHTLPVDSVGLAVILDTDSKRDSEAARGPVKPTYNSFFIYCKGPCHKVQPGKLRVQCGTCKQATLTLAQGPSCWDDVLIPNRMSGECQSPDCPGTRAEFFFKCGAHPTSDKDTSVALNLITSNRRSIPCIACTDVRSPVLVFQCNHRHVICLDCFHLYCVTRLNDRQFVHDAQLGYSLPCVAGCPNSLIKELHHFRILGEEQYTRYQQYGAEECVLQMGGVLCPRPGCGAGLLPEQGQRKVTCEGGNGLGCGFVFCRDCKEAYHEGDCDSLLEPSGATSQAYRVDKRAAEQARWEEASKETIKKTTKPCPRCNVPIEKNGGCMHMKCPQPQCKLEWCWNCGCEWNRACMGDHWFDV
Test: co-IP; 500 ug pooled murine platelet lysates (3 WT, 5 DM) with specific antibody overnight at 4 °C, protein A/G sepharose beads, Western blot, 10% input

14-3-3 (murine platelets) (mouse (endogenous in platelets))
binding: binds
